# Data published in publication PMC7709239.
# No constants are given. Whether binding was seen depends on the method and setting. Binding seen in cells or lysates may run through a third protein. Binding calls can cover weak binding; strength is not graded here. Sequences can lack the tags named with a protein.
# Biological target: T1, GST-mouse Popdc1 (aa 114 to 357) fusion protein (mouse) (UniProt Q9ES83)
# T1 sequence: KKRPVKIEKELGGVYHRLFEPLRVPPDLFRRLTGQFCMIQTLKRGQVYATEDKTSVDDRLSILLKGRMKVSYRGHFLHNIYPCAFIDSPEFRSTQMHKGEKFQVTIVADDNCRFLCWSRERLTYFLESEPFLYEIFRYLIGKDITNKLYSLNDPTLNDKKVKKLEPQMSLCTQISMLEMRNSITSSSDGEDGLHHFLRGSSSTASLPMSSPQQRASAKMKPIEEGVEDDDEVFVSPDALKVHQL
# Experiment: pull-down; GST-mouse Popdc1 on glutathione beads, incubated with RIPA extract of adult rat heart ventricle; western blot with mAb against XIRP1; control: beads alone; only the target purified
substance,measurement,value
"XIRP1 (rat, endogenous in heart ventricle)",binding,binds
